In doi:10.1101/2022.10.10.511565:
These are yes or no findings as the source states them, for the method shown. In cells and extracts the contact can be indirect. A yes stands for co-enrichment or nearness to the bait. Other partners may have been found. Tags and fused reporters may be left off the sequences shown.

Molecular target: T1, Lon^TRAP-Twin-Strep-tag (Lon S674A active-site mutant) (C. crescentus) (UniProt B8GX12)
T1 sequence: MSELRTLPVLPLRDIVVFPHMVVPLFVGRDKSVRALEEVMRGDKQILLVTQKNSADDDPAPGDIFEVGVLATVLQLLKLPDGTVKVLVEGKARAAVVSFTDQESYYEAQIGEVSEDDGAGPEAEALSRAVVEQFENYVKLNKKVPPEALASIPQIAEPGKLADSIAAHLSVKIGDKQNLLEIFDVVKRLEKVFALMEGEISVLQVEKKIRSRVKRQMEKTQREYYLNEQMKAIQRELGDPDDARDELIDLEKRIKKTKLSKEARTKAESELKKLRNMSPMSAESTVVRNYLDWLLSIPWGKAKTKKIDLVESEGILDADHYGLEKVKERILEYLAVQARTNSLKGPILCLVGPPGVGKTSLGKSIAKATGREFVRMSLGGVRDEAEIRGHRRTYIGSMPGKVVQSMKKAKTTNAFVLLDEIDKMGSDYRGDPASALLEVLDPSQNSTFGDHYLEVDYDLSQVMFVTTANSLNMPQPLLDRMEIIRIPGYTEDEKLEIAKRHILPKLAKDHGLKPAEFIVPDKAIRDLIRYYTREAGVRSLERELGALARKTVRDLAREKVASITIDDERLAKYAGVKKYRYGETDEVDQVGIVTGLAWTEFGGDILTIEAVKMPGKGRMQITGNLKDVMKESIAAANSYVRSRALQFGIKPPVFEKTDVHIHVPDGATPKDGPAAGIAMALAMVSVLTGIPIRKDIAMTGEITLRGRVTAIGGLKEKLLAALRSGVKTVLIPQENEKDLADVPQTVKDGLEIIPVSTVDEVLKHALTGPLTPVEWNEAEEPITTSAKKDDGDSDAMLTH
Assay: affinity purification with mass spectrometry

Row | Substance | binding
1 | DnaA | binds
2 | StaR | binds

The remaining lines, values ahead:

Row | binding | Substance
3 | binds | FliK
4 | binds | FliX
5 | binds | LarA (Lon activity regulator A, CCNA_03707)
